The other results are listed elsewhere or left out.

Sequences of proteins named here, by UniProt entry; tags and fusion partners are left off. A change or cut given only in a name is not applied to a line headed by its entry.
UniProt Q96KP1: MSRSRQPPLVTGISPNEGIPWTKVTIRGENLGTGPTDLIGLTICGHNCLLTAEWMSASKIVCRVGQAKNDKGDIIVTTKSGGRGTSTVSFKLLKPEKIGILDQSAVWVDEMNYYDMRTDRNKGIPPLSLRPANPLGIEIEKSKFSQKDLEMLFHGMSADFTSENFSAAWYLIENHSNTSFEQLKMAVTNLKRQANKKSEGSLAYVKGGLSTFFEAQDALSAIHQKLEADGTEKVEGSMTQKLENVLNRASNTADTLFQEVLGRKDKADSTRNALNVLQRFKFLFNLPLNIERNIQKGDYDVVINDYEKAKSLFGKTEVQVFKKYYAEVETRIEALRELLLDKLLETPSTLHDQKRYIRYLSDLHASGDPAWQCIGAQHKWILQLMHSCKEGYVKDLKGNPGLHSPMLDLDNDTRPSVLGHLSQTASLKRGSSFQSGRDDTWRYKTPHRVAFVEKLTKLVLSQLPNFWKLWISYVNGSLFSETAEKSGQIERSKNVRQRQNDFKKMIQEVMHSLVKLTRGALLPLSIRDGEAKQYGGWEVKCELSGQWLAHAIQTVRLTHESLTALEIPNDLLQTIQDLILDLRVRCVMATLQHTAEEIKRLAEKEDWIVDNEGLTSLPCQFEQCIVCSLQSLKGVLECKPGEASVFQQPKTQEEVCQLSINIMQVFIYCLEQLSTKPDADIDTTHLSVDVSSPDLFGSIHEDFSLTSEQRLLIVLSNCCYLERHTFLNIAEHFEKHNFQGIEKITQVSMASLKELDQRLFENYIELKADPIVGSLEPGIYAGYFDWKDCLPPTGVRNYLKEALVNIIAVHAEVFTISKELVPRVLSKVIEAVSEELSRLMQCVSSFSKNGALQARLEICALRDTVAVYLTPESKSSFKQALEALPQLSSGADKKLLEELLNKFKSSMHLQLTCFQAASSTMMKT
UniProt P10768: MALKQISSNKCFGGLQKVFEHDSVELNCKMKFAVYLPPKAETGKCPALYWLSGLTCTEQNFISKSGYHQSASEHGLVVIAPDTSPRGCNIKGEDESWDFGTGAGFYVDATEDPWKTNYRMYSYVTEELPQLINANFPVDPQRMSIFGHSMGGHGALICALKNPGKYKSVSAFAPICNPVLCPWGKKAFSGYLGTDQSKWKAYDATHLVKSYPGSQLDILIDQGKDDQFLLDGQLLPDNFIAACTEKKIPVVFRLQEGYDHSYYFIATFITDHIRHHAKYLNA
UniProt Q9NRY5: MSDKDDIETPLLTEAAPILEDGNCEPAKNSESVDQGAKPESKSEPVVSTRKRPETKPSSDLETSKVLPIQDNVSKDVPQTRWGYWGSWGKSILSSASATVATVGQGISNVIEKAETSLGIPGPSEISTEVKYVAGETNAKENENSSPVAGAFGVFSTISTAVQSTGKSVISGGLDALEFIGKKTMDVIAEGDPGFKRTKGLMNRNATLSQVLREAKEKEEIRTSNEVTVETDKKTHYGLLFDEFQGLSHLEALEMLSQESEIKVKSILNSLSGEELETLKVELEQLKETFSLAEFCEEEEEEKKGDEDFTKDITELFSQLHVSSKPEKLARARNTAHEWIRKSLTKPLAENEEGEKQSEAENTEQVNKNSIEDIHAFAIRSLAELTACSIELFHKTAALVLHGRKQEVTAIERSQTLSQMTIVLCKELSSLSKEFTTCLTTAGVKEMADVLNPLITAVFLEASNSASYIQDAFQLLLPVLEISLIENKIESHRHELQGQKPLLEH
UniProt Q96DZ1: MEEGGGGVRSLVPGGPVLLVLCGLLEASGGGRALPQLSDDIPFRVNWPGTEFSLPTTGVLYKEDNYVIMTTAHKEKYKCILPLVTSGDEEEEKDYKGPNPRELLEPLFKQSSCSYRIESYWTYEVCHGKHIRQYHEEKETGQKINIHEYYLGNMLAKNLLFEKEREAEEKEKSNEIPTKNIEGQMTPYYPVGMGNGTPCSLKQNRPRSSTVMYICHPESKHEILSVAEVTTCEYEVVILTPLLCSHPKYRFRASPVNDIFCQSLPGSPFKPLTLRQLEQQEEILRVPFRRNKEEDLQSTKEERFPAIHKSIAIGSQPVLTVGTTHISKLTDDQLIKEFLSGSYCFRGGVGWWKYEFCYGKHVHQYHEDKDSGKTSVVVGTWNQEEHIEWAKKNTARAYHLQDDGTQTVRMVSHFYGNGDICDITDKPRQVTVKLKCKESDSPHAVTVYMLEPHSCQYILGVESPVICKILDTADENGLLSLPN
UniProt Q9BSJ8: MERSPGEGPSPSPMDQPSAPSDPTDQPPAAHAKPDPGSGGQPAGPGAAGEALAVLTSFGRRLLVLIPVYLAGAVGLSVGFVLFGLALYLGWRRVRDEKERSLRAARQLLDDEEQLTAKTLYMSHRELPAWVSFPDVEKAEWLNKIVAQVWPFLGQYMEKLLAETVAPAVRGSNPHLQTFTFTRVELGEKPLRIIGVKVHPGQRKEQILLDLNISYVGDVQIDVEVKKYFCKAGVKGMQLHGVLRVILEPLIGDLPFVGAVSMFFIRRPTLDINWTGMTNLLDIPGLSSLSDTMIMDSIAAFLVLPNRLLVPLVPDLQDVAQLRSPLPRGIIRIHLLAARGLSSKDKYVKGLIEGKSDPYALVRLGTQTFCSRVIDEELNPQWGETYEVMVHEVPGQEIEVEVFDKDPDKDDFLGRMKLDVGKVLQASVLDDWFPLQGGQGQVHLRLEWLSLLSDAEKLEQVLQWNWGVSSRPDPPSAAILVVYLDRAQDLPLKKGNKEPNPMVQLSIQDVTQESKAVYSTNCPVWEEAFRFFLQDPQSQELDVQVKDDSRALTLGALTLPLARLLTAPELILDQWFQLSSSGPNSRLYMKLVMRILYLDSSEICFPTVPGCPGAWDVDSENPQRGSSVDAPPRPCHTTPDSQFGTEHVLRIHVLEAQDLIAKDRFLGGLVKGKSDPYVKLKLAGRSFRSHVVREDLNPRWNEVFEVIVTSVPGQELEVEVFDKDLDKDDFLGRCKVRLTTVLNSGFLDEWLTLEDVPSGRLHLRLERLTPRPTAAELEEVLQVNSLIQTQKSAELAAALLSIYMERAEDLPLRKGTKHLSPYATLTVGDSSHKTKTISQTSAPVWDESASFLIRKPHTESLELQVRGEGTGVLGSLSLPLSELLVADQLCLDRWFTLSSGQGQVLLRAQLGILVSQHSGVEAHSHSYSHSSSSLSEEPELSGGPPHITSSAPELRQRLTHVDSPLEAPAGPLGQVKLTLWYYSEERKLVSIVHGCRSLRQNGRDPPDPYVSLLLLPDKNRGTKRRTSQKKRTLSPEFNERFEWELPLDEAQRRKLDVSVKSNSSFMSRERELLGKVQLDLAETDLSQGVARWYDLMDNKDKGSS
UniProt Q6P587: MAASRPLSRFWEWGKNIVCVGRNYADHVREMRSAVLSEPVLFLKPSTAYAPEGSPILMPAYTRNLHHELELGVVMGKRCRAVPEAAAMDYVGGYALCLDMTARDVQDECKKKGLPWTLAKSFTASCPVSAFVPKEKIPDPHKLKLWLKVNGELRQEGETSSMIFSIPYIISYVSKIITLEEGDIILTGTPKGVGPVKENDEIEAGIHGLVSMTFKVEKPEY
UniProt Q9H4H8: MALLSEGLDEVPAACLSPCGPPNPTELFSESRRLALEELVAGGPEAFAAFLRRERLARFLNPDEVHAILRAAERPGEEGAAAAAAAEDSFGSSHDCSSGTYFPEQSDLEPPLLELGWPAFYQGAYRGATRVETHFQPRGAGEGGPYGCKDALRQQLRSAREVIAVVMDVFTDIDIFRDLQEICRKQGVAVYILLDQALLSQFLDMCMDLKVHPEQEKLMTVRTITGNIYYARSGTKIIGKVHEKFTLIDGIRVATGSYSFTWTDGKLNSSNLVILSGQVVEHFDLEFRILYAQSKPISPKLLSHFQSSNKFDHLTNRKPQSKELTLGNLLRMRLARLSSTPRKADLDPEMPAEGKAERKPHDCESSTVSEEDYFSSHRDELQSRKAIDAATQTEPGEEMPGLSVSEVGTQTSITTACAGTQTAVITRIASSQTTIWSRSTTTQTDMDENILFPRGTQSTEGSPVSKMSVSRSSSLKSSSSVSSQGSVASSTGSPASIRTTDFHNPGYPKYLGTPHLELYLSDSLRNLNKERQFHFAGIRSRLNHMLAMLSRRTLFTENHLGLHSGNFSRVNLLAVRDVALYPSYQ
UniProt Q9NWS6: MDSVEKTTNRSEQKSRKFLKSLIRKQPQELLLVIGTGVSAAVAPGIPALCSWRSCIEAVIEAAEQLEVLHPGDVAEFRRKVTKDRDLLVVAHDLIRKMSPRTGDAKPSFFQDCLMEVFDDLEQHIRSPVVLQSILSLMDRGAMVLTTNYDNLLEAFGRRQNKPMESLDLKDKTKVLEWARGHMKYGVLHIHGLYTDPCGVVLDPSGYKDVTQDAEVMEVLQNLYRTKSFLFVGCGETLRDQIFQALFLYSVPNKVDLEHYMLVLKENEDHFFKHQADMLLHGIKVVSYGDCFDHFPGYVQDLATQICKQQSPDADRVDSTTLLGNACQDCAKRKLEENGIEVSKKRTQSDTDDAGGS
UniProt P38117: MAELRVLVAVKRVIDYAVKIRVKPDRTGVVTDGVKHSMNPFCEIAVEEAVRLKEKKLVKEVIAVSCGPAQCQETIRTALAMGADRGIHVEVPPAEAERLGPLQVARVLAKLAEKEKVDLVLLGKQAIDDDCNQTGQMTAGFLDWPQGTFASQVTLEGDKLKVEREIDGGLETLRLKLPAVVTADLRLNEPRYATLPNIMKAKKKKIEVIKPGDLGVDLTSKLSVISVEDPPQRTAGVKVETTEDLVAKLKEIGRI
UniProt Q14320: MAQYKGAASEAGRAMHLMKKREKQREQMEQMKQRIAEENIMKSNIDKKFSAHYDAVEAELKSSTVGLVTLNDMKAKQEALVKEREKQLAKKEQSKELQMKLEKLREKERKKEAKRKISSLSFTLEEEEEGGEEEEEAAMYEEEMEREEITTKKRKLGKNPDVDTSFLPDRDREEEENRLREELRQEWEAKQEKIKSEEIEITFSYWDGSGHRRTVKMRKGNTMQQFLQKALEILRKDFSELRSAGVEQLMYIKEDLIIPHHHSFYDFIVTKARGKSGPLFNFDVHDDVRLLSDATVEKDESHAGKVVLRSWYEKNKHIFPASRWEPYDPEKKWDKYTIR
UniProt Q86X53: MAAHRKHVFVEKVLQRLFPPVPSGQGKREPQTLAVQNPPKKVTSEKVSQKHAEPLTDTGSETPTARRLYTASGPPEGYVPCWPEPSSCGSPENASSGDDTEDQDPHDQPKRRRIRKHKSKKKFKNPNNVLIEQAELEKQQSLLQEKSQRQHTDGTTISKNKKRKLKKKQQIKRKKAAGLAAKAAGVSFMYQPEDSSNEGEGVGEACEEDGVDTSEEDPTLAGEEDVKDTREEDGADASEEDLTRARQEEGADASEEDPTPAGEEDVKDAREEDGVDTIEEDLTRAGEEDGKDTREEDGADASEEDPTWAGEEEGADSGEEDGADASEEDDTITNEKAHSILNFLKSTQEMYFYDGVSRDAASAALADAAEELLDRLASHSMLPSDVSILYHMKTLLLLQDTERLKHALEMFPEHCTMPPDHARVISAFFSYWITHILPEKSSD
UniProt Q96GK7: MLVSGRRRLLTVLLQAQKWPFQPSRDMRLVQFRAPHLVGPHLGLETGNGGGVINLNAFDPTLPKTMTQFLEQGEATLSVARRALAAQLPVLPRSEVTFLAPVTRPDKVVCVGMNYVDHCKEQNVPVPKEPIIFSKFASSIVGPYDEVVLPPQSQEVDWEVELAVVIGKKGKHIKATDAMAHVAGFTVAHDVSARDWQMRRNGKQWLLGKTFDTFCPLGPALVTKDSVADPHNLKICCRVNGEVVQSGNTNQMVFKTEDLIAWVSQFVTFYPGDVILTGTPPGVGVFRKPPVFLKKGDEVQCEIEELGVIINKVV
UniProt Q9UPT5: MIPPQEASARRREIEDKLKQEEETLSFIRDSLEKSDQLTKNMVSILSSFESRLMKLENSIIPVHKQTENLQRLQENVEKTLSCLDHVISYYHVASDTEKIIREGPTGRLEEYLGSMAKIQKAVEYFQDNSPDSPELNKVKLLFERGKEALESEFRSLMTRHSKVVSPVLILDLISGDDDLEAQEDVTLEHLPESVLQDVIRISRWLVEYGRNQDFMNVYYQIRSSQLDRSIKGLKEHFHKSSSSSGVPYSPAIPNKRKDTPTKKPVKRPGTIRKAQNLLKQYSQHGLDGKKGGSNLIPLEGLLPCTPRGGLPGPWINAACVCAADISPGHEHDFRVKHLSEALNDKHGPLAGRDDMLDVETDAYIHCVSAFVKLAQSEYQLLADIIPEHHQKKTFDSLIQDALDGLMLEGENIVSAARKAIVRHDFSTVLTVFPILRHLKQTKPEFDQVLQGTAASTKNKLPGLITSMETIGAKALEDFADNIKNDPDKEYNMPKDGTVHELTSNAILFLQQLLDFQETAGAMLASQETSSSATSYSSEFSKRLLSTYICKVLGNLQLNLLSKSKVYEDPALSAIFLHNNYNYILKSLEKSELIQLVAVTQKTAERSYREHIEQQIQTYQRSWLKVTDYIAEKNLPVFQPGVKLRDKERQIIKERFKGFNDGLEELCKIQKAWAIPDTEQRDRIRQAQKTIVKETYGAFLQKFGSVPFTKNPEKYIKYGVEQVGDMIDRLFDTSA

Compound in this experiment: C[C@@H](Oc1cc(-c2cnn(C3CCNCC3)c2)cnc1N)c1c(Cl)ccc(F)c1Cl [crizotinib]
Description: log2 fold change, soluble protein after heating vs DMSO (PISA); higher = thermal stabilisation; K562 lysate, 10 uM; active = over 0.2 and 3.5 SD of the protein, either way, in both replicates (recomputed). A digest of the protocol:
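To prepare the extract, K562 pellets were dounce-homogenised in PBS pH 7.4 with 1 mM MgCl2, giving crude material at 1 mg/mL protein. This was treated with 10 μM compound for 30 min, then heated in aliquots for 3 min over 48°C-58°C before pooling and addition of NP-40 to 0.5% at 4°C. Centrifugation at 21,000xg for 90 min left soluble protein in the supernatant, which TMTpro 16plex LC-MS/MS quantified with equalised channel sums. Results are log-two fold changes in thermal stability compared with solvent controls, from duplicates.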
Regarding ETNK1 (UniProt Q9HBU6), the log2 fold change was inactive: -0.032.
For the target FAM83A (UniProt Q86UY5), the log2 fold change is inactive: 0.086.
Turning to FADS3 (UniProt Q9Y5Q0), the log2 fold change is inactive: -0.065.
Take EXOC2 (UniProt Q96KP1): the log2 fold change is inactive: -0.099.
In the case of FAM120A isoform 6 (UniProt Q9NZB2), the log2 fold change is inactive: -0.041.
EXOSC5 (UniProt Q9NQT4): the log2 fold change was inactive: 0.027.
To FAM162A (UniProt Q96A26) belongs inactive: 0.05; to EZH2 isoform 2 (UniProt Q15910), inactive: -0.044.
Regarding EXOC4 (UniProt Q96A65), the log2 fold change is inactive: -0.044.
As for EXOSC4 (UniProt Q9NPD3), the figure is inactive: -0.002.
As for ESS2 (UniProt Q96DF8), the figure is inactive: 0.055; as for EXOC6 (UniProt Q8TAG9), inactive: -0.121.
For FADS1, A0A0A0MR51, the log2 fold change was inactive: -0.003.
Turning to F5 (UniProt P12259), the log2 fold change was inactive: -0.023.
As for FAM207A (UniProt Q9NSI2), the figure is inactive: -0.017; as for ESD (UniProt P10768), inactive: -0.002; as for FAM122A (UniProt Q96E09), inactive: -0.006.
To FAM114A2 (UniProt Q9NRY5) belongs inactive: 0.013; to FAM136A (UniProt Q96C01), inactive: 0.066; to EXOC3 (UniProt O60645), inactive: -0.133.
As for EYA3 (UniProt Q99504), the figure is inactive: -0.081.
For the target ERVK3-1, A0A0U1RQV1, the log2 fold change was inactive: -0.041.
As for ERLEC1 (UniProt Q96DZ1), the figure is inactive: 0.012; as for ESYT1 isoform 2 (UniProt Q9BSJ8), inactive: 0.023.
As for FAHD1 (UniProt Q6P587), the figure is inactive: -0.164; as for FAM49B (UniProt Q9NUQ9), inactive: -0.016.
To FABP5 (UniProt Q01469) belongs inactive: 0.003; to FAM83D (UniProt Q9H4H8), inactive: -0.026; to EXTL2 (UniProt Q9UBQ6), inactive: 0.032.
Consider FAM118A (UniProt Q9NWS6), for which the log2 fold change is inactive: -0.054.
In the case of ESYT2 (UniProt H7BXI1), the log2 fold change was inactive: -0.039.
As for ETFB (UniProt P38117), the figure is inactive: 0.041; as for ERP29 (UniProt P30040), inactive: 0.052.
As for FAM50A (UniProt Q14320), the figure is inactive: 0.033; as for ERICH1 (UniProt Q86X53), inactive: -0.017.
For FAHD2A (UniProt Q96GK7), the log2 fold change was inactive: 0.013.
To FAM210B (UniProt Q96KR6) belongs inactive: -0.068.
As for ETF1 (UniProt P62495), the figure is inactive: -0.013; as for EXOSC6 (UniProt Q5RKV6), inactive: -0.012; as for EXOC7 (UniProt Q9UPT5), inactive: -0.076.

(Values after the supplement of paper PMC10849652.)
